PubChem BioAssay AID493246 – Drosophila RNAi Screening Center, 2011
Screen: 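Genome-wide search for dsRNAs that reduce cell number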 (primary screen). Cell system: Drosophila Kc and S2R+ cells. Knock-down reagent: long dsRNA against Drosophila genes. Measurement: 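Cell number per well after knock-down, printed as raw plate values; calls were based on per-plate z-scores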. Direction: Kc cell number and S2R+ cell number: higher = more cells remaining. Rule for the call: 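Counted as a hit if cell number falls by a z-score of at least 3 within its plate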.
In all, the deposit lists about 21,000 reagents; shown is a random part of those that have a named target and a result. In the full data, 429 (2%) are marked active. 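Values are raw and not normalised between plates; calls rest on per-plate z-scores that were not deposited.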 Reagents against one gene are numbered here. Names joined by + are all predicted targets of the reagent. Not given: the amount of reagent, the time to read-out.

Rtnl1 (Reticulon-like1) #1: Kc cell number, rep 1 = 1.54e6; Kc cell number, rep 2 = 1.52e6; S2R+ cell number, rep 1 = 1.04e6; S2R+ cell number, rep 2 = 1.24e6; Outcome = inactive
Rtnl1 (Reticulon-like1) #2: Kc cell number, rep 1 = 1.42e6; Kc cell number, rep 2 = 1.37e6; S2R+ cell number, rep 1 = 7.05e5; S2R+ cell number, rep 2 = 8.91e5; Outcome = inactive
Rtnl1 (Reticulon-like1) #3: Kc cell number, rep 1 = 1.41e6; Kc cell number, rep 2 = 1.46e6; S2R+ cell number, rep 1 = 6.80e5; S2R+ cell number, rep 2 = 8.24e5; Outcome = inactive
stops (slow termination of phototransduction) #1: Kc cell number, rep 1 = 1.53e6; Kc cell number, rep 2 = 1.56e6; S2R+ cell number, rep 1 = 1.05e6; S2R+ cell number, rep 2 = 1.21e6; Outcome = inactive
stops (slow termination of phototransduction) #2: Kc cell number, rep 1 = 1.50e6; Kc cell number, rep 2 = 1.52e6; S2R+ cell number, rep 1 = 1.06e6; S2R+ cell number, rep 2 = 1.19e6; Outcome = inactive
stops (slow termination of phototransduction) #3: Kc cell number, rep 1 = 1.51e6; Kc cell number, rep 2 = 1.53e6; S2R+ cell number, rep 1 = 1.14e6; S2R+ cell number, rep 2 = 1.22e6; Outcome = inactive
Ste:CG33238 + Ste:CG33241 + Ste:CG33236 + 11 more #1: Kc cell number, rep 1 = 1.43e6; Kc cell number, rep 2 = 1.57e6; S2R+ cell number, rep 1 = 1.13e6; S2R+ cell number, rep 2 = 1.19e6; Outcome = inactive
Ste:CG33238 + Ste:CG33241 + Ste:CG33236 + 11 more #2: Kc cell number, rep 1 = 1.44e6; Kc cell number, rep 2 = 1.50e6; S2R+ cell number, rep 1 = 1.07e6; S2R+ cell number, rep 2 = 1.21e6; Outcome = inactive
CG18662: Kc cell number, rep 1 = 1.53e6; Kc cell number, rep 2 = 1.57e6; S2R+ cell number, rep 1 = 1.22e6; S2R+ cell number, rep 2 = 1.39e6; Outcome = inactive
Act42A (Actin 42A): Kc cell number, rep 1 = 1.33e6; Kc cell number, rep 2 = 1.37e6; S2R+ cell number, rep 1 = 1.07e6; S2R+ cell number, rep 2 = 1.24e6; Outcome = inactive
Eaat1 (Excitatory amino acid transporter 1): Kc cell number, rep 1 = 1.59e6; Kc cell number, rep 2 = 1.70e6; S2R+ cell number, rep 1 = 1.27e6; S2R+ cell number, rep 2 = 1.45e6; Outcome = inactive
CG8539: Kc cell number, rep 1 = 1.44e6; Kc cell number, rep 2 = 1.50e6; S2R+ cell number, rep 1 = 1.36e6; S2R+ cell number, rep 2 = 1.26e6; Outcome = inactive
Srp14 (Signal recognition particle 14): Kc cell number, rep 1 = 1.35e6; Kc cell number, rep 2 = 1.34e6; S2R+ cell number, rep 1 = 1.05e6; S2R+ cell number, rep 2 = 1.14e6; Outcome = inactive
CG4793: Kc cell number, rep 1 = 1.47e6; Kc cell number, rep 2 = 1.56e6; S2R+ cell number, rep 1 = 1.22e6; S2R+ cell number, rep 2 = 1.44e6; Outcome = inactive
CG16985: Kc cell number, rep 1 = 1.43e6; Kc cell number, rep 2 = 1.25e6; S2R+ cell number, rep 1 = 1.04e6; S2R+ cell number, rep 2 = 1.26e6; Outcome = inactive
Mipp1 (Multiple inositol polyphosphate phosphatase 1): Kc cell number, rep 1 = 1.53e6; Kc cell number, rep 2 = 1.71e6; S2R+ cell number, rep 1 = 1.22e6; S2R+ cell number, rep 2 = 1.27e6; Outcome = inactive
CG34427: Kc cell number, rep 1 = 1.30e6; Kc cell number, rep 2 = 1.31e6; S2R+ cell number, rep 1 = 1.15e6; S2R+ cell number, rep 2 = 1.14e6; Outcome = inactive
CG40485: Kc cell number, rep 1 = 1.42e6; Kc cell number, rep 2 = 1.47e6; S2R+ cell number, rep 1 = 8.88e5; S2R+ cell number, rep 2 = 9.95e5; Outcome = inactive
Lis-1 (Lissencephaly-1): Kc cell number, rep 1 = 1.49e6; Kc cell number, rep 2 = 1.60e6; S2R+ cell number, rep 1 = 1.02e6; S2R+ cell number, rep 2 = 1.12e6; Outcome = inactive
CNBP (CCHC-type zinc finger nucleic acid binding protein) #1: Kc cell number, rep 1 = 1.61e6; Kc cell number, rep 2 = 1.73e6; S2R+ cell number, rep 1 = 1.32e6; S2R+ cell number, rep 2 = 1.51e6; Outcome = inactive
CNBP (CCHC-type zinc finger nucleic acid binding protein) #2: Kc cell number, rep 1 = 1.63e6; Kc cell number, rep 2 = 1.67e6; S2R+ cell number, rep 1 = 1.10e6; S2R+ cell number, rep 2 = 1.21e6; Outcome = inactive

Quoted from the entries so far for reference:
stops (slow termination of phototransduction) #1: Kc cell number, rep 1 = 1.53e6; Kc cell number, rep 2 = 1.56e6; S2R+ cell number, rep 1 = 1.05e6; S2R+ cell number, rep 2 = 1.21e6; Outcome = inactive
stops (slow termination of phototransduction) #2: Kc cell number, rep 1 = 1.50e6; Kc cell number, rep 2 = 1.52e6; S2R+ cell number, rep 1 = 1.06e6; S2R+ cell number, rep 2 = 1.19e6; Outcome = inactive
stops (slow termination of phototransduction) #3: Kc cell number, rep 1 = 1.51e6; Kc cell number, rep 2 = 1.53e6; S2R+ cell number, rep 1 = 1.14e6; S2R+ cell number, rep 2 = 1.22e6; Outcome = inactive
